PubChem BioAssay AID1508597 – Cure First – 2020
Aim: 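Survival screen with siRNA in ovarian cancer cells derived from patients, with or without rucaparib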 (primary screen). Cell system: human ovarian carcinoma lines grown from tumours: OCI-P5x (papillary serous) and OCI-C5x (clear cell). Reagent: siRNA pool against human genes, 1.25 pmol siRNA per well. Time to read-out: 72 h or 96 h, depending on the cell culture. Challenge: rucaparib 20 µM (about IC30) or vehicle, present until read-out. Detection: 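Luminescent ATP-based viability assay read 72 or 96 h after transfection, depending on culture, given as normalised percent viability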. Scale: viability, normalised: higher = more viable cells remaining. Active means: 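Active when normalised viability falls below 80 percent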. Calls: active = viability under 80%; inactive = viability 80% or more.
This is one part, drawn at random, of about 2,100 deposited reagents. 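Calls flag viability under 80% in either arm, not effects specific to rucaparib; the reference for percent is not stated.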 Entries without a mark were called inactive. Some reagents were tested in more than one well and are listed for each. Not given: the 100% reference.

viability, normalised (%) | gene knocked down | rucaparib or vehicle | cell line | technical replicate
55.9 (active) | PRKAG3 | Rucaparib | OCI-C5x (clear cell) | 1
48.9 (active) | PRKAG3 | Rucaparib | OCI-C5x (clear cell) | 2
51.9 (active) | PRKAG3 | Rucaparib | OCI-C5x (clear cell) | 3
91.6 | PRKAG3 | Rucaparib | OCI-P5x (serous) | 1
96.1 | PRKAG3 | Rucaparib | OCI-P5x (serous) | 2
95.9 | PRKAG3 | Rucaparib | OCI-P5x (serous) | 3
56.8 (active) | PRKAG3 | Vehicle | OCI-C5x (clear cell) | 1
71.3 (active) | PRKAG3 | Vehicle | OCI-C5x (clear cell) | 2
49.4 (active) | PRKAG3 | Vehicle | OCI-C5x (clear cell) | 3
85.3 | PRKAG3 | Vehicle | OCI-P5x (serous) | 1
73.9 (active) | PRKAG3 | Vehicle | OCI-P5x (serous) | 2
94.7 | PRKAG3 | Vehicle | OCI-P5x (serous) | 3
80.1 | WNK3 | Rucaparib | OCI-C5x (clear cell) | 1
68.3 (active) | WNK3 | Rucaparib | OCI-C5x (clear cell) | 2
69.1 (active) | WNK3 | Rucaparib | OCI-C5x (clear cell) | 3
108 | WNK3 | Rucaparib | OCI-P5x (serous) | 1
93.6 | WNK3 | Rucaparib | OCI-P5x (serous) | 2
87.8 | WNK3 | Rucaparib | OCI-P5x (serous) | 3
69.3 (active) | WNK3 | Vehicle | OCI-C5x (clear cell) | 1
60.6 (active) | WNK3 | Vehicle | OCI-C5x (clear cell) | 2
60.5 (active) | WNK3 | Vehicle | OCI-C5x (clear cell) | 3
96.2 | WNK3 | Vehicle | OCI-P5x (serous) | 1
69.7 (active) | WNK3 | Vehicle | OCI-P5x (serous) | 2
70.3 (active) | WNK3 | Vehicle | OCI-P5x (serous) | 3
42.8 (active) | PTTG1 | Rucaparib | OCI-C5x (clear cell) | 1
47.2 (active) | PTTG1 | Rucaparib | OCI-C5x (clear cell) | 1
39.6 (active) | PTTG1 | Rucaparib | OCI-C5x (clear cell) | 2
51.2 (active) | PTTG1 | Rucaparib | OCI-C5x (clear cell) | 2
54.9 (active) | PTTG1 | Rucaparib | OCI-C5x (clear cell) | 3
36.4 (active) | PTTG1 | Rucaparib | OCI-C5x (clear cell) | 3
44.9 (active) | PTTG1 | Rucaparib | OCI-P5x (serous) | 1
66.6 (active) | PTTG1 | Rucaparib | OCI-P5x (serous) | 1
61.2 (active) | PTTG1 | Rucaparib | OCI-P5x (serous) | 2
80.7 | PTTG1 | Rucaparib | OCI-P5x (serous) | 2
60.5 (active) | PTTG1 | Rucaparib | OCI-P5x (serous) | 3
57.1 (active) | PTTG1 | Rucaparib | OCI-P5x (serous) | 3
41.3 (active) | PTTG1 | Vehicle | OCI-C5x (clear cell) | 1
57 (active) | PTTG1 | Vehicle | OCI-C5x (clear cell) | 1
40.6 (active) | PTTG1 | Vehicle | OCI-C5x (clear cell) | 2
38.5 (active) | PTTG1 | Vehicle | OCI-C5x (clear cell) | 2
52.7 (active) | PTTG1 | Vehicle | OCI-C5x (clear cell) | 3
41.6 (active) | PTTG1 | Vehicle | OCI-C5x (clear cell) | 3
81.7 | PTTG1 | Vehicle | OCI-P5x (serous) | 1
69.2 (active) | PTTG1 | Vehicle | OCI-P5x (serous) | 1
93.2 | PTTG1 | Vehicle | OCI-P5x (serous) | 2
52.6 (active) | PTTG1 | Vehicle | OCI-P5x (serous) | 2
62.4 (active) | PTTG1 | Vehicle | OCI-P5x (serous) | 3
99 | PTTG1 | Vehicle | OCI-P5x (serous) | 3
71.2 (active) | TRIM33 | Rucaparib | OCI-C5x (clear cell) | 1
66.6 (active) | TRIM33 | Rucaparib | OCI-C5x (clear cell) | 1
64.4 (active) | TRIM33 | Rucaparib | OCI-C5x (clear cell) | 2
45.6 (active) | TRIM33 | Rucaparib | OCI-C5x (clear cell) | 2
52.2 (active) | TRIM33 | Rucaparib | OCI-C5x (clear cell) | 3
50.1 (active) | TRIM33 | Rucaparib | OCI-C5x (clear cell) | 3
55 (active) | TRIM33 | Rucaparib | OCI-P5x (serous) | 1
134 | TRIM33 | Rucaparib | OCI-P5x (serous) | 1
67.9 (active) | TRIM33 | Rucaparib | OCI-P5x (serous) | 2
114 | TRIM33 | Rucaparib | OCI-P5x (serous) | 2
61.5 (active) | TRIM33 | Rucaparib | OCI-P5x (serous) | 3
93.7 | TRIM33 | Rucaparib | OCI-P5x (serous) | 3
43.1 (active) | TRIM33 | Vehicle | OCI-C5x (clear cell) | 1
51.7 (active) | TRIM33 | Vehicle | OCI-C5x (clear cell) | 1
54.4 (active) | TRIM33 | Vehicle | OCI-C5x (clear cell) | 2
67.1 (active) | TRIM33 | Vehicle | OCI-C5x (clear cell) | 2
44.3 (active) | TRIM33 | Vehicle | OCI-C5x (clear cell) | 3
54.5 (active) | TRIM33 | Vehicle | OCI-C5x (clear cell) | 3
98.4 | TRIM33 | Vehicle | OCI-P5x (serous) | 1
75 (active) | TRIM33 | Vehicle | OCI-P5x (serous) | 1
59 (active) | TRIM33 | Vehicle | OCI-P5x (serous) | 2
72.9 (active) | TRIM33 | Vehicle | OCI-P5x (serous) | 2
84.3 | TRIM33 | Vehicle | OCI-P5x (serous) | 3
83.8 | TRIM33 | Vehicle | OCI-P5x (serous) | 3
60 (active) | DDX19A | Rucaparib | OCI-C5x (clear cell) | 1
47.4 (active) | DDX19A | Rucaparib | OCI-C5x (clear cell) | 2
43 (active) | DDX19A | Rucaparib | OCI-C5x (clear cell) | 3
89.8 | DDX19A | Rucaparib | OCI-P5x (serous) | 1
96.5 | DDX19A | Rucaparib | OCI-P5x (serous) | 2
87.7 | DDX19A | Rucaparib | OCI-P5x (serous) | 3
46.5 (active) | DDX19A | Vehicle | OCI-C5x (clear cell) | 1
57.1 (active) | DDX19A | Vehicle | OCI-C5x (clear cell) | 2
66 (active) | DDX19A | Vehicle | OCI-C5x (clear cell) | 3
89.4 | DDX19A | Vehicle | OCI-P5x (serous) | 1
98.4 | DDX19A | Vehicle | OCI-P5x (serous) | 2
87.2 | DDX19A | Vehicle | OCI-P5x (serous) | 3

8 consecutive entries from above:
viability, normalised (%) | gene knocked down | rucaparib or vehicle | cell line | technical replicate
80.1 | WNK3 | Rucaparib | OCI-C5x (clear cell) | 1
68.3 (active) | WNK3 | Rucaparib | OCI-C5x (clear cell) | 2
69.1 (active) | WNK3 | Rucaparib | OCI-C5x (clear cell) | 3
108 | WNK3 | Rucaparib | OCI-P5x (serous) | 1
93.6 | WNK3 | Rucaparib | OCI-P5x (serous) | 2
87.8 | WNK3 | Rucaparib | OCI-P5x (serous) | 3
69.3 (active) | WNK3 | Vehicle | OCI-C5x (clear cell) | 1
60.6 (active) | WNK3 | Vehicle | OCI-C5x (clear cell) | 2
